Laboratory results: PubChem BioAssay AID743454 (Peter MacCallum Cancer Centre, 2014)
Purpose: 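Knock-downs lowering viability or raising caspase 3/7 activity in vorinostat-treated resistant cells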 (primary screen). Cells: human HCT116-VR colon cancer cells, selected for vorinostat resistance. Reagent: siRNA pool against human genes, 40 nM siRNA pool. Duration: vorinostat for 24 h, read-out about 72 h after transfection. Conditions: vorinostat at 2.5 µM final. Measurement: 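Two measures, CellTiter-Fluor viability and luminescent caspase 3/7 activity, each as fold change against same-plate mock wells, mean of duplicates, then screen-wide robust z-score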. Scale: viability robust z-score: higher = more viable cells than screen typical; caspase robust z-score: higher = more caspase 3/7 activity than screen typical. Active means: 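a knock-down is a hit when classed RV1 or RV2 for lowered viability, or CA1 or CA2 for caspase activation; those lethal without drug were dropped; hits were retested singly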.
This is an unselected part of about 18,000 reagents. 450 of all reagents (2.5%) were called active. 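Single biological run; no consistent viability z cut-off exists, so the class columns, not z-scores, define the calls.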 A number with no mark means an inactive call.

gene knocked down	viability hit class	caspase hit class	viability robust z-score	caspase robust z-score
LTB4R2	no change	no change	-0.71	0.24
SOX12	no change	no change	-0.02	1.5
PNPLA8	no change	no change	0.4	-0.04
FBLN5	no change	no change	0	1.06
MED1	no change	no change	0.56	-0.68
PSG1	no change	no change	2.93	-0.14
ITPRIPL1	no change	no change	0.68	-0.39
PRKACG	no change	no change	0.6	-0.12
SLC25A41	no change	no change	-0.18	-0.7
CHRNB2	no change	no change	-0.21	-0.57
ZNF501	no change	no change	-0.84	-1.09
ST6GALNAC3	no change	no change	-0.4	-0.78
SORBS1	no change	no change	0.44	-1.03
CDCA4	no change	no change	0.42	0.16
NCAPG	no change	no change	0.71	-0.32
TMA7	no change	no change	-0.92	-0.82
NCAPH2	no change	no change	0.64	-1.18
POLR2F	no change	no change	-5.34	1.68
DNAJC25	no change	no change	-0.3	3.12
AHNAK	no change	no change	-1.1	2.02
OR10Z1	no change	no change	0.45	0.44
C11orf42	no change	no change	-0.04	0.5
MEPE	no change	no change	-0.6	-0.72

Reprinted from above (4 entries):
gene knocked down	viability hit class	caspase hit class	viability robust z-score	caspase robust z-score
PNPLA8	no change	no change	0.4	-0.04
FBLN5	no change	no change	0	1.06
MED1	no change	no change	0.56	-0.68
PSG1	no change	no change	2.93	-0.14
